The source of these data is article PMC3490818.

The target in the assay is T1, Signal peptide peptidase (human (endogenous in HEK293)) (UniProt Q8TCT9).
T1 sequence: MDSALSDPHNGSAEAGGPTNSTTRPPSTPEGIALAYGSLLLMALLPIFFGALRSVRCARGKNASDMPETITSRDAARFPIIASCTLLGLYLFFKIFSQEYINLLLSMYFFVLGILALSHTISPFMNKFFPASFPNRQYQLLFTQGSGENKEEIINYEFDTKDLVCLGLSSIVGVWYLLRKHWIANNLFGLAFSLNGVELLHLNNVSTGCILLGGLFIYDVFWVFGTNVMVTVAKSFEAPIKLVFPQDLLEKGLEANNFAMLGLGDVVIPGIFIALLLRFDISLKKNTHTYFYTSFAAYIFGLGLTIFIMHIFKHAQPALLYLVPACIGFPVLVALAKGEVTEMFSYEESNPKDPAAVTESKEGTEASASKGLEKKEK
In words: affinity purification with mass spectrometry; anti-SPP-CT antibody cross-linked to Protein G sepharose; HEK293 microsomal membranes solubilized in 0.5% DDM in 25 mM HEPES pH 7.4, 150 mM NaCl, 4 mM EDTA; washes with 0.02% DDM and one wash with 300 mM NaCl; elution at pH 3.0; control with antibody pre-saturated with 100 ug/ml cognate peptide; iTRAQ-116 (control) against iTRAQ-117 (specific).

No constants are given. Whether binding was seen depends on the method and setting. In cells and extracts the contact can be indirect. A yes stands for co-enrichment or nearness to the bait. Other partners may have been found.

On to Vigilin (from UniProt Q00341-1 1-1268), for which the binding result is “binds”.
